Source: patent publication US20080199854
Construct, isoform or probe ends are uncertain for at least one entry. Where cells or extracts were used, other partners may take part. For some assays here: A negative result means that nothing was seen under these conditions. For some assays here: Protein sequences can lack the tags named with them.

Amino acid sequences for entries named in this document (tags omitted). A change or cut given only in a name is not applied to a line headed by its entry. Residues count along the entry.
UniProt Q3SWU0: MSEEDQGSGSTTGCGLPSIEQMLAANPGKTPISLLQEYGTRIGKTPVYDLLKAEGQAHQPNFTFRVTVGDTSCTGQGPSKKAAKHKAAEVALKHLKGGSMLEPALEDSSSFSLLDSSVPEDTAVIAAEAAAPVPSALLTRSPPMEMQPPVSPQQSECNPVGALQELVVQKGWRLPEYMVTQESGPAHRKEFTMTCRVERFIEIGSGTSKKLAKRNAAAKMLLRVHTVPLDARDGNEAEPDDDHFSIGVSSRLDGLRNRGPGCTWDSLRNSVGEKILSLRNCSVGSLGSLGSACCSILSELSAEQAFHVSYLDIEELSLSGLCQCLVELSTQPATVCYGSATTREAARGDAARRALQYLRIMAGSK
UniProt Q6IMY8, 2-798: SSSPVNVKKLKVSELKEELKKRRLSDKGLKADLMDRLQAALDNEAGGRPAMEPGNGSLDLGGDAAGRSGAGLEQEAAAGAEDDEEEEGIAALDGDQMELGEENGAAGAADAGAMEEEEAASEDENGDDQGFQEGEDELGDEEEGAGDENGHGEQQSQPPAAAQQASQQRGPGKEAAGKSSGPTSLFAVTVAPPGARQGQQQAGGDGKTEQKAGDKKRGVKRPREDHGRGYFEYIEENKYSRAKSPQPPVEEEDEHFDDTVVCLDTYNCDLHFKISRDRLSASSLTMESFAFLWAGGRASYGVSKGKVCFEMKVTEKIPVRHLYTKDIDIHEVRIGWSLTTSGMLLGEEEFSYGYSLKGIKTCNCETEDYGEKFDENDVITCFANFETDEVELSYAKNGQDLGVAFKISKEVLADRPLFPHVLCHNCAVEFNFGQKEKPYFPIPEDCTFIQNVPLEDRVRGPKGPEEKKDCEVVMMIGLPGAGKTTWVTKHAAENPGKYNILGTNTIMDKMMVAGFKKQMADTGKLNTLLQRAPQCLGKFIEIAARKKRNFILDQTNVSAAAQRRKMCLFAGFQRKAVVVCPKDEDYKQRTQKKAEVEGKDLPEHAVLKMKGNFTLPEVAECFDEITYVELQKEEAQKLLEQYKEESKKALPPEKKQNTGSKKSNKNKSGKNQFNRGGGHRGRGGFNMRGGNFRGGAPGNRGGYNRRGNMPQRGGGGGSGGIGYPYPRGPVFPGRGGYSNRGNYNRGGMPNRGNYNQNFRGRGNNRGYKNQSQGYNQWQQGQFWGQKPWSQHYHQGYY
UniProt Q6URK4: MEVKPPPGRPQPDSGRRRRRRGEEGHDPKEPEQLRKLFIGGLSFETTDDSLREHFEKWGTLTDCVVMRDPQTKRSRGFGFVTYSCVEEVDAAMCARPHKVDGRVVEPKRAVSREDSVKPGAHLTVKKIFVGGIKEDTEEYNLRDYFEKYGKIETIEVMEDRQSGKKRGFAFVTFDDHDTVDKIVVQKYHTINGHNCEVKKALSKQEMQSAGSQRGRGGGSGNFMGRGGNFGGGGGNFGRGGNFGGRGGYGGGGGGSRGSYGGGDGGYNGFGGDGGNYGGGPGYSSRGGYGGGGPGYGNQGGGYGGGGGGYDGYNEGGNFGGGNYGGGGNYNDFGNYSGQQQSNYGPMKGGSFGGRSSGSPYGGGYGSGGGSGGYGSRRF
UniProt P13383, whole entry: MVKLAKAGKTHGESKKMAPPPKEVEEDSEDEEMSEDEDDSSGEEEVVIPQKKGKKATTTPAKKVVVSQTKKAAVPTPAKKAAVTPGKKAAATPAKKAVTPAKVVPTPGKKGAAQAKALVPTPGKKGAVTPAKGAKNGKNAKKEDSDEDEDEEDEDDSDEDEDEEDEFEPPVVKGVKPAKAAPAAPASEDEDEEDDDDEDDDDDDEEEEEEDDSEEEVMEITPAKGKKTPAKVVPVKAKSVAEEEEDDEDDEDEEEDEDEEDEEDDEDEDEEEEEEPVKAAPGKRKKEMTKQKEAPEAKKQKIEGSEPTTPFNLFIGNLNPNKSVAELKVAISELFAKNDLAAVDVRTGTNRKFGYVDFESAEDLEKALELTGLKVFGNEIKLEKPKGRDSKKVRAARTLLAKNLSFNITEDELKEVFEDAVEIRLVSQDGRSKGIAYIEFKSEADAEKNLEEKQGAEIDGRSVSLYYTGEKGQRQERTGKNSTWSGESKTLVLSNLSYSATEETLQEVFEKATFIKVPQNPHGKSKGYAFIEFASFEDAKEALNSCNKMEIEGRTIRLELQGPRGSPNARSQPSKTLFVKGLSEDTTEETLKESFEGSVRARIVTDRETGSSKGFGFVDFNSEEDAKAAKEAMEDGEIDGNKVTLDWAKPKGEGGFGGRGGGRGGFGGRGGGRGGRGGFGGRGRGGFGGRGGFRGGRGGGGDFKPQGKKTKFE
UniProt A7VJC2: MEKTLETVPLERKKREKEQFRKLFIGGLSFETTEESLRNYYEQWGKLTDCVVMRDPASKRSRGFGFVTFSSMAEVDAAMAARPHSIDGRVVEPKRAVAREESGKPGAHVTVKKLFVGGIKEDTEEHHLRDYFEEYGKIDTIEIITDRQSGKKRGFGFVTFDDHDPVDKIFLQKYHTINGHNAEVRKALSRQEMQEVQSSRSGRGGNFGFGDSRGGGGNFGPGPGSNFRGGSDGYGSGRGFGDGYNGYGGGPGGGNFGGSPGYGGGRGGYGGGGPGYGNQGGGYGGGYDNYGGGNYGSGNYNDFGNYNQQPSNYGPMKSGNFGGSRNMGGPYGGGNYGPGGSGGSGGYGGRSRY
UniProt P04256: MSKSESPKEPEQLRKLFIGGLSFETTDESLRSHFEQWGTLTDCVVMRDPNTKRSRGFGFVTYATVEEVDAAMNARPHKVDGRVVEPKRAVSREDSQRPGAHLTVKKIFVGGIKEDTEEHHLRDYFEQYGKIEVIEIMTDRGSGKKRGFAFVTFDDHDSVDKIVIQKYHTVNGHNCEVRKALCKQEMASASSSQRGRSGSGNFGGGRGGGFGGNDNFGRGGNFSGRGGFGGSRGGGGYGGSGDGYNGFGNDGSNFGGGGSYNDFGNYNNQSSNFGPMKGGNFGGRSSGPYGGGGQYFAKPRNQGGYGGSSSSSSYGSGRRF
UniProt F1LQ48: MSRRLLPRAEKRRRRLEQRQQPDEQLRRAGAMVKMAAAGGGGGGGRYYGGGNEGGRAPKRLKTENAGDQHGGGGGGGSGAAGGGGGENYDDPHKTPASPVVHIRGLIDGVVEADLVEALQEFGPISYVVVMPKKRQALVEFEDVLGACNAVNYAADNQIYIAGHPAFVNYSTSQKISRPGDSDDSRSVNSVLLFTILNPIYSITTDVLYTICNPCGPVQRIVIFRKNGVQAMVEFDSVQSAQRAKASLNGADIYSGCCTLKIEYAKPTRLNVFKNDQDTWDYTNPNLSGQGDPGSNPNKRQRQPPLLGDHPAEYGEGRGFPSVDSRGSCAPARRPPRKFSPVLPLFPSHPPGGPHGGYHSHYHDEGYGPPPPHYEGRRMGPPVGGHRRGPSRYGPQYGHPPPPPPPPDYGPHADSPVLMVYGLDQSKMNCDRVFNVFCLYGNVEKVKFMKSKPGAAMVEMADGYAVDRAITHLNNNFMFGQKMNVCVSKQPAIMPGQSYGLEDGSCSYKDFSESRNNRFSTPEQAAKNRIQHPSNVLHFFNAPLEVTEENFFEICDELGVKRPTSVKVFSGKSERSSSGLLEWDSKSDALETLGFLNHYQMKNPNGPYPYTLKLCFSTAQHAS

Experiments:
Experiment in all cases: pull-down
TAR RBP = TAR RBP (UniProt Q3SWU0); details: PNA strand, Cys-Bpa at N-term, Lys-amide at C-term, disulfide to TP10; protein in cells
hnRNP U = hnRNP U (UniProt Q6IMY8); details: PNA strand, Cys-Bpa at N-term, Lys-amide at C-term, disulfide to TP10, protein in cells
hnRNP A3 = hnRNP A3 (UniProt Q6URK4); details: PNA strand, Cys-Bpa at N-term, Lys-amide at C-term, disulfide to TP10; protein in cells
hnRNP K = hnRNP K (UniProt P61980); details: PNA strand, Cys-Bpa at N-term, Lys-amide at C-term, disulfide to TP10, protein in cells
Nucleolin = Nucleolin (UniProt P13383); details: PNA strand, Cys-Bpa at N-term, Lys-amide at C-term, disulfide to TP10; protein in cells
hnRNP R = target: T1, hnRNP R (UniProt Q566E4); details: PNA strand, Cys-Bpa at N-term, Lys-amide at C-term, disulfide to TP10; protein in cells
T1 sequence (looked up, limits assumed): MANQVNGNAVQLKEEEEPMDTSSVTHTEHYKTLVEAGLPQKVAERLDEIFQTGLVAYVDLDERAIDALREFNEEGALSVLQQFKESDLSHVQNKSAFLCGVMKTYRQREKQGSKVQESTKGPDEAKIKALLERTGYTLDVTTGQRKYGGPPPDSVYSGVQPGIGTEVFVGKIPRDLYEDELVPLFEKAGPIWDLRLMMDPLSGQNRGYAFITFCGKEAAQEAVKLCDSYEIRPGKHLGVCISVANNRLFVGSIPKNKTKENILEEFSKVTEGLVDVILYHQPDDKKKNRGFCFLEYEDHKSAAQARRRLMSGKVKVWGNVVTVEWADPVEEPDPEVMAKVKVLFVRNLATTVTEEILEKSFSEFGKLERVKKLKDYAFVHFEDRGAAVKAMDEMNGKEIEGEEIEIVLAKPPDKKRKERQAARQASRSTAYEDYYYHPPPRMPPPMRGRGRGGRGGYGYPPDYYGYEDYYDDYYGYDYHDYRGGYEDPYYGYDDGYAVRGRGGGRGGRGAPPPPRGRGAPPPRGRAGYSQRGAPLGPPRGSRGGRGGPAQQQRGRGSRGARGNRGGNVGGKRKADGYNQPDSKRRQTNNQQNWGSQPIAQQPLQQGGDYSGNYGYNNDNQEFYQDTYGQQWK

SAP 114 = target: T2, SAP 114 (UniProt D3ZQM0); details: PNA strand, Cys-Bpa at N-term, Lys-amide at C-term, disulfide to TP10; protein in cells
T2 sequence (looked up, limits assumed): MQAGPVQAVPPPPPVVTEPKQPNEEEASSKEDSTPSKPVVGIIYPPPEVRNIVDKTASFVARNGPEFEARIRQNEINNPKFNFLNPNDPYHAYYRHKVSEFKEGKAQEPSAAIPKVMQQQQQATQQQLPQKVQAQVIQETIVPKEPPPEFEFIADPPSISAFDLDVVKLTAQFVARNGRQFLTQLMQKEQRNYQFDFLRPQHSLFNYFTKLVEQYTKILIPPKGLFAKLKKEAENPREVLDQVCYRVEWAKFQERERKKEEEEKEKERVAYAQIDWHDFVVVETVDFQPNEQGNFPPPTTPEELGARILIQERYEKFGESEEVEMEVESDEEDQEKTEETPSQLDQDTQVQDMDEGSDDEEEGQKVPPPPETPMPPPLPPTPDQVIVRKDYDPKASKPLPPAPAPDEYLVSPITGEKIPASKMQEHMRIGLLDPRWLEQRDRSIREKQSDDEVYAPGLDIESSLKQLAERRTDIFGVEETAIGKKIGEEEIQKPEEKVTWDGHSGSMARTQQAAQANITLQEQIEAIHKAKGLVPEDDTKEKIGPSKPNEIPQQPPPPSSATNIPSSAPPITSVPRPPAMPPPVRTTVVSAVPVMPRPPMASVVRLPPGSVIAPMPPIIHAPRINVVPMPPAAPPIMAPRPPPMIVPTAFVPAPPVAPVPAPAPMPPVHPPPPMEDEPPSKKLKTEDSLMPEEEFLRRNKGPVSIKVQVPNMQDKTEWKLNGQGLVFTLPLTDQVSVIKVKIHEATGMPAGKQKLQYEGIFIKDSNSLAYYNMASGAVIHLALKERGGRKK

splicing factor Prp8 = splicing factor Prp8 (UniProt G3V6H2); details: PNA strand, Cys-Bpa at N-term, Lys-amide at C-term, disulfide to TP10; protein in cells
hnRNP A2/B1 = hnRNP A2/B1 (UniProt A7VJC2); details: PNA strand, Cys-Bpa at N-term, Lys-amide at C-term, disulfide to TP10; protein in cells
hsp90-b = hsp90-b (UniProt P34058); details: PNA strand, Cys-Bpa at N-term, Lys-amide at C-term, disulfide to TP10; protein in cells
U5snRNP = details: PNA strand, Cys-Bpa at N-term, Lys-amide at C-term, disulfide to TP10; protein in cells
hsp70 = details: PNA strand, Cys-Bpa at N-term, Lys-amide at C-term, disulfide to TP10; protein in cells
hspHPTG = details: PNA strand, Cys-Bpa at N-term, Lys-amide at C-term, disulfide to TP10; protein in cells
hsp71 = hsp71 (UniProt P63018); details: PNA strand, Cys-Bpa at N-term, Lys-amide at C-term, disulfide to TP10; protein in cells
hscognate 90 = details: PNA strand, Cys-Bpa at N-term, Lys-amide at C-term, disulfide to TP10; protein in cells
RBP Fus (pigpen) = target: T3, RBP Fus (pigpen) (UniProt Q5PQK2); details: PNA strand, Cys-Bpa at N-term, Lys-amide at C-term, disulfide to TP10; protein in cells
T3 sequence (looked up, limits assumed): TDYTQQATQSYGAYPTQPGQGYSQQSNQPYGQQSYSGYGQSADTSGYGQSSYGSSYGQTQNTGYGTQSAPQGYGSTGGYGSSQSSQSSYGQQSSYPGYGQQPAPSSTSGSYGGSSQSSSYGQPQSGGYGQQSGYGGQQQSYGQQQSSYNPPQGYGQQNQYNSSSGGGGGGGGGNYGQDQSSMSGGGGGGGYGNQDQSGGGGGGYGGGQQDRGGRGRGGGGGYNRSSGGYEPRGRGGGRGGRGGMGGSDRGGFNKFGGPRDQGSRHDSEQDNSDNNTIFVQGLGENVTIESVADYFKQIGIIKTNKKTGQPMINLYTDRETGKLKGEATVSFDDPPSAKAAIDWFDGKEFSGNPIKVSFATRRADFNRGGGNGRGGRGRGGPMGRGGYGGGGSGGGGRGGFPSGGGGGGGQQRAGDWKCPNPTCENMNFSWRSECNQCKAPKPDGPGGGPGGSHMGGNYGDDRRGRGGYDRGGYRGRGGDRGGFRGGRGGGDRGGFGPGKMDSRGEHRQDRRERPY

hnRNP A1 = hnRNP A1 (UniProt P04256); details: PNA strand, Cys-Bpa at N-term, Lys-amide at C-term, disulfide to TP10; protein in cells
hsp82 = details: PNA strand, Cys-Bpa at N-term, Lys-amide at C-term, disulfide to TP10; protein in cells
hnRNP L = hnRNP L (UniProt F1LQ48); details: PNA strand, Cys-Bpa at N-term, Lys-amide at C-term, disulfide to TP10; protein in cells
[1] = target: T4, pre-mRNA splicing factor 75 (UniProt G3V798); details: PNA strand, Cys-Bpa at N-term, Lys-amide at C-term, disulfide to TP10; protein in cells
T4 sequence (looked up, limits assumed): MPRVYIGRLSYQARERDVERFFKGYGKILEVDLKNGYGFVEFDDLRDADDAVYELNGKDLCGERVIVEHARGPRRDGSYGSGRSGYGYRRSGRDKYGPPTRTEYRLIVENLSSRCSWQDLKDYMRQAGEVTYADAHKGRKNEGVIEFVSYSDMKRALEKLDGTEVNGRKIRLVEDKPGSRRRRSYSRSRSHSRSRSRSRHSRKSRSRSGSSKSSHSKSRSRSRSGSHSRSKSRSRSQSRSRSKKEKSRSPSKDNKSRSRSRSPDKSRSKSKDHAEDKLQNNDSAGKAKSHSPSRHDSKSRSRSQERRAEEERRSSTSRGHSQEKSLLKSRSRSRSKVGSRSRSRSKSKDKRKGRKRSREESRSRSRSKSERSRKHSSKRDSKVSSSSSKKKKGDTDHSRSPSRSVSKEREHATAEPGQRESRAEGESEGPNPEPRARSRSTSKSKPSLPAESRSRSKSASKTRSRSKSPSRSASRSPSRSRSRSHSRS

[2] = target: PTB-associated splicing factor (PSF) (UniProt Q4KM71); details: PNA strand, Cys-Bpa at N-term, Lys-amide at C-term, disulfide to TP10; protein in cells
[3] = target: T5, spliceosome associated protein 145 (SAP145) (UniProt D3ZMS1); details: PNA strand, Cys-Bpa at N-term, Lys-amide at C-term, disulfide to TP10; protein in cells
T5 sequence (looked up, limits assumed): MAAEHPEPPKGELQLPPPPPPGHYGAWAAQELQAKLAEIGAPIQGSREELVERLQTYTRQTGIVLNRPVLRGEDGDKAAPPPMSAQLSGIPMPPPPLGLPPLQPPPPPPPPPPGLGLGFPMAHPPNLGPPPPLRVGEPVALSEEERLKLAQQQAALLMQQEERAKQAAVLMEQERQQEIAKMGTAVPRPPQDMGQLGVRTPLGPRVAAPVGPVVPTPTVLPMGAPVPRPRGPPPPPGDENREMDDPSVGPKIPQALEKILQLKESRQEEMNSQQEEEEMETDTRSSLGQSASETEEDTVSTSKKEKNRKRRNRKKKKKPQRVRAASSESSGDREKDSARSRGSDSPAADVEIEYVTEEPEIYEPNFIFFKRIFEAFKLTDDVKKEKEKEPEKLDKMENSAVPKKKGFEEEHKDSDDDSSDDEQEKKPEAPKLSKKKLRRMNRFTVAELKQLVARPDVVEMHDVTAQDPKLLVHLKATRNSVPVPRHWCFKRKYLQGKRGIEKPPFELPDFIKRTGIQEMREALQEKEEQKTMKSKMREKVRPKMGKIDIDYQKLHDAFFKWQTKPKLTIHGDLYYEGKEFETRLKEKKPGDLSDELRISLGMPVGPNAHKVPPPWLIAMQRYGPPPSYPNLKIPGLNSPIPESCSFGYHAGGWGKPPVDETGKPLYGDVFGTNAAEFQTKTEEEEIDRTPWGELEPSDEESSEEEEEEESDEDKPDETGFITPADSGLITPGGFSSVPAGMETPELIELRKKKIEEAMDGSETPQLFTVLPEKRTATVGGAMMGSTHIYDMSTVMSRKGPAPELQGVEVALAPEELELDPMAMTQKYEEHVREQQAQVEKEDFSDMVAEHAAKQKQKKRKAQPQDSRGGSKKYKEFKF

hnRNP X = details: PNA strand, Cys-Bpa at N-term, Lys-amide at C-term, disulfide to TP10; protein in cells
MARTA 1 = target: T6, MARTA 1 (UniProt Q99PF5); details: PNA strand, Cys-Bpa at N-term, Lys-amide at C-term, disulfide to TP10; protein in cells
T6 sequence (looked up, limits assumed): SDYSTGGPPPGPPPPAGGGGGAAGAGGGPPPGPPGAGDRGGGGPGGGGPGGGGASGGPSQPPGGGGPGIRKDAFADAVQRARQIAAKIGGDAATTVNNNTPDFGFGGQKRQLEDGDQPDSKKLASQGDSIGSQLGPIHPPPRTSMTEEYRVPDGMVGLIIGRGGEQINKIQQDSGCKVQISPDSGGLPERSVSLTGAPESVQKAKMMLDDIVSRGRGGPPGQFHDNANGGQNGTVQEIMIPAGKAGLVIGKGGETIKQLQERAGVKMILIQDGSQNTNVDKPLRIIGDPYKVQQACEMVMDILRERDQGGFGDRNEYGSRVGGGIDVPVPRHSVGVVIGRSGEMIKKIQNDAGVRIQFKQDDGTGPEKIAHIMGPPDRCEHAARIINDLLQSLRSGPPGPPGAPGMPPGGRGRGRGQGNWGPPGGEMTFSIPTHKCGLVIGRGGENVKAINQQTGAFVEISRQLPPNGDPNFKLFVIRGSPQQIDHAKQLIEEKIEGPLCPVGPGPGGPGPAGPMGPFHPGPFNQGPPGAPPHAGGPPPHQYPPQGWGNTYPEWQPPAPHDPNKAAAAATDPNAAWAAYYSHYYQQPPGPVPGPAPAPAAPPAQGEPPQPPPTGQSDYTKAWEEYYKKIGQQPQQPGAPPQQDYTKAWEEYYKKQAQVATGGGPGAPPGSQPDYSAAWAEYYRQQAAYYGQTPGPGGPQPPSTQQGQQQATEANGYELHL

Sequence | binding result (TAR RBP) | binding result (hnRNP U) | binding result (hnRNP A3) | binding result (hnRNP K; found only with Ank 1 PNA) | binding result (Nucleolin) | binding result (hnRNP A2/B1) | binding result (hsp90-b) | binding result (hsp70) | binding result (hspHPTG) | binding result (hsp71) | binding result (hscognate 90) | other results
AAACCTCTAAATCAAGGCCTC [Ank mRNA 3' region with annealed Ank 2 PNA] | binds | binds | binds | no binding | binds | binds |  |  |  |  |  | binding result (hnRNP R): binds; binding result (SAP 114): binds; binding result (splicing factor Prp8): binds
AAGCGCGGCTGCTCTAGCAGAA [Ank mRNA 5'-UTR region with annealed Ank 3 PNA] | binds | binds |  | no binding | binds |  | binds | binds | binds | binds | binds | binding result (U5snRNP): binds
TACGAAACCTCTAAATCAAGG [Ank mRNA 3' region with annealed Ank 1 PNA] |  |  | binds |  | binds | binds | binds | binds | binds | binds | binds | binding result (RBP Fus (pigpen)): binds; binding result (hnRNP U; found only with Ank 2 and Ank 3 PNA): no binding; binding result (hnRNP K): binds; binding result (hnRNP A1): binds; binding result (hsp82): binds; binding result (hnRNP L): binds; binding result [1]: binds; binding result [2]: binds; binding result [3]: binds; binding result (hnRNP X): binds; binding result (MARTA 1): binds
